Assay [1] addresses BAF155 (SMARCC1), core SWI/SNF subunit (human (endogenous in NCI-H660 and LNCaP-AR)) (UniProt Q92922). The assay can be described thus: affinity purification with mass spectrometry; co-IP with anti-BAF155 antibody (rabbit IgG isotype control) from nuclear fraction of NCI-H660 (CRPC-NE) cells, low stringency, overnight 4 °C, Protein G magnetic beads, washes with CoIP buffer and 150 mM NaCl, 50 mM Tris-HCl pH 8; LC-MS/MS.

The chains behind the UniProt entries cited, without tags or fusion partners.
UniProt Q92922: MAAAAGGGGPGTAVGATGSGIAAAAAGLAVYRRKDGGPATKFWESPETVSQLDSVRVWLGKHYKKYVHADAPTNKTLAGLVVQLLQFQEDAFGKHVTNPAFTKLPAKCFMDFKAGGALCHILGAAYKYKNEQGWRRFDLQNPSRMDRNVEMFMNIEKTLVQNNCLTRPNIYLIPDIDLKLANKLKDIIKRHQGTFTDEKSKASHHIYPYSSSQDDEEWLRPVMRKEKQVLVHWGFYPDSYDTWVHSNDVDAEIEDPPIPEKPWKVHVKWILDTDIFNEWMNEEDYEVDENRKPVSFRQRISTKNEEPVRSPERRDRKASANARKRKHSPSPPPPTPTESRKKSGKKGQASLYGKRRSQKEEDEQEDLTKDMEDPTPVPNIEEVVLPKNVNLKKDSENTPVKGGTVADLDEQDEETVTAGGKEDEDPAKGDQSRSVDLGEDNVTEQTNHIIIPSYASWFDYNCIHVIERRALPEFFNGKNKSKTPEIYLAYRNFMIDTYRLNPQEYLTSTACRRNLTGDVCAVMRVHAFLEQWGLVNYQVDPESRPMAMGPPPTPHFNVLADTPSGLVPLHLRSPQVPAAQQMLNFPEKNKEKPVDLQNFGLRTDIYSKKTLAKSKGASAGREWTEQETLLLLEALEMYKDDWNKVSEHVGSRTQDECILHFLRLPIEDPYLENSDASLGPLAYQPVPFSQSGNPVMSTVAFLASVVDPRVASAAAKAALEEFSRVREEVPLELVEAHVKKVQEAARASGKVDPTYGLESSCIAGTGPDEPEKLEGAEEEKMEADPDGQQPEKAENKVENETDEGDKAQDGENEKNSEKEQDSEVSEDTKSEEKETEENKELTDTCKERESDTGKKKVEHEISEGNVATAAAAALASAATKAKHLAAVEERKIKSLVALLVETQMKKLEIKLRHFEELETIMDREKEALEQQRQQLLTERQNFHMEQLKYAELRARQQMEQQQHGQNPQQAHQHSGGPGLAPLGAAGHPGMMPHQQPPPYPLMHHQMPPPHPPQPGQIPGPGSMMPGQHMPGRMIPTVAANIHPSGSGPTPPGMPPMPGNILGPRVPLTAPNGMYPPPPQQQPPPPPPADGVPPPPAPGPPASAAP
UniProt P51532: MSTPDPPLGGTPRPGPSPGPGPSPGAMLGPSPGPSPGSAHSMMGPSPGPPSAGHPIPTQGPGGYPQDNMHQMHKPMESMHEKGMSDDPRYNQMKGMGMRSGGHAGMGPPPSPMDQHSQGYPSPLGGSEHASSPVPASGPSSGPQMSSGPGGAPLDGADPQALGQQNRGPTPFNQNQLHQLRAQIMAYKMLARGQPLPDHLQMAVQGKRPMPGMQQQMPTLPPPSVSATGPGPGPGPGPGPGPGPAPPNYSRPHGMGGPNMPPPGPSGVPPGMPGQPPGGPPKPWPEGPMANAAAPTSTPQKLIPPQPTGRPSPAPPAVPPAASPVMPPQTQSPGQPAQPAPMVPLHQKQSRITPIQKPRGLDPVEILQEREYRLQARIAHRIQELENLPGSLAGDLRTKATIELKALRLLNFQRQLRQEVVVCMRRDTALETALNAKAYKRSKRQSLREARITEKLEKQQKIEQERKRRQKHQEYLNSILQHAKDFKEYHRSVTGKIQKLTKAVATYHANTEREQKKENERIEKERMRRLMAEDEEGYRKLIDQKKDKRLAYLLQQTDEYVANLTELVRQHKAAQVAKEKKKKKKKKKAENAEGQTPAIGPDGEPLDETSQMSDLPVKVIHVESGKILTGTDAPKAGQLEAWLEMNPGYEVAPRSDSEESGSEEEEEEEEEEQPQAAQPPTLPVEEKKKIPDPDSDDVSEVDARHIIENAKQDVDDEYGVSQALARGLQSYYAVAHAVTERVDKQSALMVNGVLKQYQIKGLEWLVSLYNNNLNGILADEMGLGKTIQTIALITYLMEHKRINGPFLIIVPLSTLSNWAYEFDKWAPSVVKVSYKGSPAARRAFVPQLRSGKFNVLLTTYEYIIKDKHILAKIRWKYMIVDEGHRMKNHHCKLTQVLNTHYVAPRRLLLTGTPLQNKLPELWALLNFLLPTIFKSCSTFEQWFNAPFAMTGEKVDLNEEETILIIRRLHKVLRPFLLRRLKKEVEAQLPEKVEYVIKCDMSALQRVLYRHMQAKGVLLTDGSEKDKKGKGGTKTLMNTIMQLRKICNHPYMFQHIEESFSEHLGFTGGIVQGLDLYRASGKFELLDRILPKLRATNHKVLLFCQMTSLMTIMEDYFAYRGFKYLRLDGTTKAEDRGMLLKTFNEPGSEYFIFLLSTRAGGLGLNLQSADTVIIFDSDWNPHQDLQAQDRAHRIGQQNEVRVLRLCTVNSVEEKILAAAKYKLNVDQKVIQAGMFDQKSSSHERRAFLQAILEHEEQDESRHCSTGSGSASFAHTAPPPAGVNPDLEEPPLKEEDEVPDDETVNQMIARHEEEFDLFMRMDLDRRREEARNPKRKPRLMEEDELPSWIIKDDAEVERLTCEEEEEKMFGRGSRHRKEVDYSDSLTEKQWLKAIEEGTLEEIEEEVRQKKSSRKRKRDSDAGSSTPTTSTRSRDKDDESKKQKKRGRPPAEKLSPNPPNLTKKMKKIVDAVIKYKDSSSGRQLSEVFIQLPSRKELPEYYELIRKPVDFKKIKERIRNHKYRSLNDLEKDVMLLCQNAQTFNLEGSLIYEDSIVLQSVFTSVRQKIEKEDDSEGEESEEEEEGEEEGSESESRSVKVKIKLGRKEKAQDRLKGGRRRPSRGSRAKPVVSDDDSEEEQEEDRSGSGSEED
UniProt Q92782: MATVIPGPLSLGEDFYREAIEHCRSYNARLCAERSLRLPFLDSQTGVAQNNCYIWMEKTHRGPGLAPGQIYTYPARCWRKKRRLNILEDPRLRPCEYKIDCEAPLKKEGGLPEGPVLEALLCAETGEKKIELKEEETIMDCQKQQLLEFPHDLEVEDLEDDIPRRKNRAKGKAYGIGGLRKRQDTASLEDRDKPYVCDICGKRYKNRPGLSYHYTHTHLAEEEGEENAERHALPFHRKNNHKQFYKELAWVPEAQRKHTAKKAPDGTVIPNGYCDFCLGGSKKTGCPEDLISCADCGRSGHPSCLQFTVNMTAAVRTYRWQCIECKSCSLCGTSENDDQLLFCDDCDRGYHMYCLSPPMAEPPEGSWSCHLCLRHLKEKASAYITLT
UniProt O94805: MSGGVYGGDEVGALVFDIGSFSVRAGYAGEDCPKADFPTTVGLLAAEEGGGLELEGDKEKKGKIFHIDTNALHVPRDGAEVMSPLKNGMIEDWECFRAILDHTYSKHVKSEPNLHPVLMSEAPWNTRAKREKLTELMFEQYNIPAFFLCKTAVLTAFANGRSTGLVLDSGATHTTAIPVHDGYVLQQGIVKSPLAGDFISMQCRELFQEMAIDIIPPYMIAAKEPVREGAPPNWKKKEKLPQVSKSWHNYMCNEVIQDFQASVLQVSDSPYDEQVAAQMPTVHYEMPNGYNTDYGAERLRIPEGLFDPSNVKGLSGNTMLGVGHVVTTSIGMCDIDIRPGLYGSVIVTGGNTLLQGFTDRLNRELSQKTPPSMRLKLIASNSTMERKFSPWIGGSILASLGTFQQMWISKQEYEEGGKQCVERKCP
UniProt Q9NP66: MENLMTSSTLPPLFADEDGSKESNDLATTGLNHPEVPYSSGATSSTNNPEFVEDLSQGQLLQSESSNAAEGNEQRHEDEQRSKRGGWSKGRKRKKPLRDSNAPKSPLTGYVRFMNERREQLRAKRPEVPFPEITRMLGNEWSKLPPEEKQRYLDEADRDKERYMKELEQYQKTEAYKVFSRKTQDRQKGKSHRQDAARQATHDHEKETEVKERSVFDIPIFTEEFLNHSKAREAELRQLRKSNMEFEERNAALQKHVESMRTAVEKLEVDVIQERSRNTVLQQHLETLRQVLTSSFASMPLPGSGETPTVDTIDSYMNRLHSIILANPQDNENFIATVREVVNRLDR
UniProt Q92826: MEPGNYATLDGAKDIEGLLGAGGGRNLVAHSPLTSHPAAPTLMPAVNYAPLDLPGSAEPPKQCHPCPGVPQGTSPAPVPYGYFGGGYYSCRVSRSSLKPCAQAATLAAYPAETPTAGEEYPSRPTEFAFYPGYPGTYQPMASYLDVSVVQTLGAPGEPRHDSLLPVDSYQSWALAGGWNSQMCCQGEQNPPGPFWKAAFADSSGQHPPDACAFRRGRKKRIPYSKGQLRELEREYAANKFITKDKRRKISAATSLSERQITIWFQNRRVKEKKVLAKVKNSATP
UniProt P11137: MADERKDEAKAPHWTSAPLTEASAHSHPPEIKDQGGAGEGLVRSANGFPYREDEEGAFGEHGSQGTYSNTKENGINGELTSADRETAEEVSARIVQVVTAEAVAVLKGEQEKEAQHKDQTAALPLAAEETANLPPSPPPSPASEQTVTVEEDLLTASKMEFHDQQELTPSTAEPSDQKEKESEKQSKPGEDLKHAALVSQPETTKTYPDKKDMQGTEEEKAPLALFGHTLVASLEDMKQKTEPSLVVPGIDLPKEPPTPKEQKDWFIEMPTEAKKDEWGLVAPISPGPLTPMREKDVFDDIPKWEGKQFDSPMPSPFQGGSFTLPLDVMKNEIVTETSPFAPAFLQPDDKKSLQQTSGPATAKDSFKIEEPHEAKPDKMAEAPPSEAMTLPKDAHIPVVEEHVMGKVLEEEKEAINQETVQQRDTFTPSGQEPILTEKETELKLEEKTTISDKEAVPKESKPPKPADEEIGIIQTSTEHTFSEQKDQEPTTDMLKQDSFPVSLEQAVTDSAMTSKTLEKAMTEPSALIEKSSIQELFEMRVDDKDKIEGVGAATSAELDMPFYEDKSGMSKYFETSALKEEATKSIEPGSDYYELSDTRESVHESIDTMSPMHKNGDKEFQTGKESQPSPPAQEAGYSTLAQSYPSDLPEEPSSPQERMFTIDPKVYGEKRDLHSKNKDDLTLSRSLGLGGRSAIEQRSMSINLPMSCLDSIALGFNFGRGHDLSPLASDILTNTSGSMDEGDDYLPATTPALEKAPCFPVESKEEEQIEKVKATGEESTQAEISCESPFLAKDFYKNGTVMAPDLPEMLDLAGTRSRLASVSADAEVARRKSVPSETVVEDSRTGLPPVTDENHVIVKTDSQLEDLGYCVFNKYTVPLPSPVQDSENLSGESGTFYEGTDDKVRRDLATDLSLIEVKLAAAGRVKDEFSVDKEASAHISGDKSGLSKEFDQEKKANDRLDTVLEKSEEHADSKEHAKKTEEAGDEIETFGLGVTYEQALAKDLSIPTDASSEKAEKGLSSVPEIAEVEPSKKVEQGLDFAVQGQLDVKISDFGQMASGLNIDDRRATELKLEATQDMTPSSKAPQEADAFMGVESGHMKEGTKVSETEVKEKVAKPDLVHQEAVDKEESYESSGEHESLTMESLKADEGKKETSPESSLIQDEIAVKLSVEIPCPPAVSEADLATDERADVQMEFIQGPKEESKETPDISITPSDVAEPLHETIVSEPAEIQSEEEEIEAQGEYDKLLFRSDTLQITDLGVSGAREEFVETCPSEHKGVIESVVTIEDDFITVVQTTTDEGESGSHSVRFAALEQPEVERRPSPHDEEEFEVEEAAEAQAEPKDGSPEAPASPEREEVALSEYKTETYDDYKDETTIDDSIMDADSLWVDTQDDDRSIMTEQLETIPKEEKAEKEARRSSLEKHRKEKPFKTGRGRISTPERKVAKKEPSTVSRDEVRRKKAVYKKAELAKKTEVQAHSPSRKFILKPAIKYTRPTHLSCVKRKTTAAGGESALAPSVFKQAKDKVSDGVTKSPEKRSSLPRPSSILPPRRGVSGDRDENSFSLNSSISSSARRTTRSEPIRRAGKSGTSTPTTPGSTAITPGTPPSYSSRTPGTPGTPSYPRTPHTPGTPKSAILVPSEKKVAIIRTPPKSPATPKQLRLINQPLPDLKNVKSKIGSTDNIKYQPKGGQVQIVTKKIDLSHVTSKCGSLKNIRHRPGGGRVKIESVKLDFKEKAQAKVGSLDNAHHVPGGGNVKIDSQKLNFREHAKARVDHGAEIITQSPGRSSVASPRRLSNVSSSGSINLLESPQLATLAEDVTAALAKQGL

Assay [2] deals with SMARCA4 (BRG1) (human (endogenous in NCI-H660 and LNCaP)) (UniProt P51532). Briefly: affinity purification with mass spectrometry; second co-IP (validation): anti-Brg-1 antibodies cross-linked to Protein G magnetic beads, nuclear lysate of NCI-H660 (CRPC-NE) cells overnight, elution with 8 M urea, dimethyl labelling against IgG control, MS.
For assay [3], the target named is BAF155 (SMARCC1), core SWI/SNF subunit (human (endogenous in NCI-H660 and LNCaP-AR)) (UniProt Q92922). Briefly: affinity purification with mass spectrometry; co-IP with anti-BAF155 antibody (rabbit IgG isotype control) from nuclear fraction of LNCaP-AR (adenocarcinoma) cells, low stringency, overnight 4 °C, Protein G magnetic beads, washes with CoIP buffer and 150 mM NaCl, 50 mM Tris-HCl pH 8; LC-MS/MS.

For assay [4], the target named is SMARCA4 (BRG1) (human (endogenous in NCI-H660 and LNCaP)) (UniProt P51532). Briefly: affinity purification with mass spectrometry; second co-IP (validation): anti-Brg-1 antibodies cross-linked to Protein G magnetic beads, nuclear lysate of LNCaP (adenocarcinoma) cells overnight, elution with 8 M urea, dimethyl labelling against IgG control, MS.

No constants are given. Whether binding was seen depends on the method and setting. Binding seen in cells or lysates may run through a third protein. These calls come from enrichment with a bait or labelling near it, and not all partners need be listed. No binding means not detected with the bait.

Consider “BAF45B (DPF1) (from UniProt Q92782 1-387)”, for which the binding result in assay [1] and in assay [2] was “binds” in each case.

In the case of “BAF53B (ACTL6B) (from UniProt O94805 1-426)”, the binding entry in assay [1] and in assay [2] was “binds” in each case.

For the molecule CHD4 (from UniProt Q14839 1-1912), the binding result in assay [1] was “binds”.

For the molecule HMG20A (from UniProt Q9NP66 1-347), the binding result in assay [1] is listed as “binds”.

As to HOXB13 (from UniProt Q92826 1-284), the binding entry in assay [1] is given as “no binding (only in NCI-H660 (CRPC-NE) cells)”; in assay [3], “binds”; in assay [4] it was “binds”; in assay [2], “no binding (only in NCI-H660 (CRPC-NE) cells)”.

As to “microtubule-associated factor MAP2 (from UniProt P11137 1-1827)”, the binding entry in assay [1] is listed as “binds”; in assay [3], “no binding (only in LNCaP-AR (adenocarcinoma) cells)”.

B1: transcription factor NK2 homeobox 1 (NKX2.1/TTF-1) (protein, UniProt P43699 1-371)
chain: MSMSPKHTTPFSVSDILSPLEESYKKVGMEGGGLGAPLAAYRQGQAAPPTAAMQQHAVGHHGAVTAAYHMTAAGVPQLSHSAVGGYCNGNLGNMSELPPYQDTMRNSASGPGWYGANPDPRFPAISRFMGPASGMNMSGMGGLGSLGDVSKNMAPLPSAPRRKRRVLFSQAQVYELERRFKQQKYLSAPEREHLASMIHLTPTQVKIWFQNHRYKMKRQAKDKAAQQQLQQDSGGGGGGGGTGCPQQQQAQQQSPRRVAVPVLVKDGKPCQAGAPAPGAASLQGHAQQQAQHQAQAAQAAAAAISVGSGGAGLGAHPGHQPGSAGQSPDLAHHAASPAALQGQVSSLSHLNSSGSDYGTMSCSTLLYGRTW
For the molecule B1, the binding entry in assay [1] was “binds”; in assay [3], “no binding (only in LNCaP-AR (adenocarcinoma) cells)”; in assay [4] it was “no binding (only in LNCaP (adenocarcinoma) cells)”; in assay [2] it was “binds”.

B2: growth factor VGF (protein, UniProt O15240 23-615)
chain: APPGRPEAQPPPLSSEHKEPVAGDAVPGPKDGSAPEVRGARNSEPQDEGELFQGVDPRALAAVLLQALDRPASPPAPSGSQQGPEEEAAEALLTETVRSQTHSLPAPESPEPAAPPRPQTPENGPEASDPSEELEALASLLQELRDFSPSSAKRQQETAAAETETRTHTLTRVNLESPGPERVWRASWGEFQARVPERAPLPPPAPSQFQARMPDSGPLPETHKFGEGVSSPKTHLGEALAPLSKAYQGVAAPFPKARRPESALLGGSEAGERLLQQGLAQVEAGRRQAEATRQAAAQEERLADLASDLLLQYLLQGGARQRGLGGRGLQEAAEERESAREEEEAEQERRGGEERVGEEDEEAAEAEAEAEEAERARQNALLFAEEEDGEAGAEDKRSQEETPGHRRKEAEGTEEGGEEEDDEEMDPQTIDSLIELSTKLHLPADDVVSIIEEVEEKRKRKKNAPPEPVPPPRAAPAPTHVRSPQPPPPAPAPARDELPDWNEVLPPWDREEDEVYPPGPYHPFPNYIRPRTLQPPSALRRRHYHHALPPSRHYPGREAQARRAQEEAEAEERRLQEQEELENYIEHVLLRRP
Take B2: the binding entry was “binds” in assay [1] and “no binding (only in LNCaP-AR (adenocarcinoma) cells)” in assay [3].

Values taken from article PMC7642293.
